Laboratory results reported in PMC9263144.
These are yes or no findings as the source states them, for the method shown. In cells and extracts the contact can be indirect. Some results given as binding are weak or reduced against the parent protein; the word gives no strength.

Chains of the proteins cited; added tags and fusions are not shown. Lines headed by an entry give the natural chain unless they say otherwise; changes in a name come on top.
UniProt Q8NFU7: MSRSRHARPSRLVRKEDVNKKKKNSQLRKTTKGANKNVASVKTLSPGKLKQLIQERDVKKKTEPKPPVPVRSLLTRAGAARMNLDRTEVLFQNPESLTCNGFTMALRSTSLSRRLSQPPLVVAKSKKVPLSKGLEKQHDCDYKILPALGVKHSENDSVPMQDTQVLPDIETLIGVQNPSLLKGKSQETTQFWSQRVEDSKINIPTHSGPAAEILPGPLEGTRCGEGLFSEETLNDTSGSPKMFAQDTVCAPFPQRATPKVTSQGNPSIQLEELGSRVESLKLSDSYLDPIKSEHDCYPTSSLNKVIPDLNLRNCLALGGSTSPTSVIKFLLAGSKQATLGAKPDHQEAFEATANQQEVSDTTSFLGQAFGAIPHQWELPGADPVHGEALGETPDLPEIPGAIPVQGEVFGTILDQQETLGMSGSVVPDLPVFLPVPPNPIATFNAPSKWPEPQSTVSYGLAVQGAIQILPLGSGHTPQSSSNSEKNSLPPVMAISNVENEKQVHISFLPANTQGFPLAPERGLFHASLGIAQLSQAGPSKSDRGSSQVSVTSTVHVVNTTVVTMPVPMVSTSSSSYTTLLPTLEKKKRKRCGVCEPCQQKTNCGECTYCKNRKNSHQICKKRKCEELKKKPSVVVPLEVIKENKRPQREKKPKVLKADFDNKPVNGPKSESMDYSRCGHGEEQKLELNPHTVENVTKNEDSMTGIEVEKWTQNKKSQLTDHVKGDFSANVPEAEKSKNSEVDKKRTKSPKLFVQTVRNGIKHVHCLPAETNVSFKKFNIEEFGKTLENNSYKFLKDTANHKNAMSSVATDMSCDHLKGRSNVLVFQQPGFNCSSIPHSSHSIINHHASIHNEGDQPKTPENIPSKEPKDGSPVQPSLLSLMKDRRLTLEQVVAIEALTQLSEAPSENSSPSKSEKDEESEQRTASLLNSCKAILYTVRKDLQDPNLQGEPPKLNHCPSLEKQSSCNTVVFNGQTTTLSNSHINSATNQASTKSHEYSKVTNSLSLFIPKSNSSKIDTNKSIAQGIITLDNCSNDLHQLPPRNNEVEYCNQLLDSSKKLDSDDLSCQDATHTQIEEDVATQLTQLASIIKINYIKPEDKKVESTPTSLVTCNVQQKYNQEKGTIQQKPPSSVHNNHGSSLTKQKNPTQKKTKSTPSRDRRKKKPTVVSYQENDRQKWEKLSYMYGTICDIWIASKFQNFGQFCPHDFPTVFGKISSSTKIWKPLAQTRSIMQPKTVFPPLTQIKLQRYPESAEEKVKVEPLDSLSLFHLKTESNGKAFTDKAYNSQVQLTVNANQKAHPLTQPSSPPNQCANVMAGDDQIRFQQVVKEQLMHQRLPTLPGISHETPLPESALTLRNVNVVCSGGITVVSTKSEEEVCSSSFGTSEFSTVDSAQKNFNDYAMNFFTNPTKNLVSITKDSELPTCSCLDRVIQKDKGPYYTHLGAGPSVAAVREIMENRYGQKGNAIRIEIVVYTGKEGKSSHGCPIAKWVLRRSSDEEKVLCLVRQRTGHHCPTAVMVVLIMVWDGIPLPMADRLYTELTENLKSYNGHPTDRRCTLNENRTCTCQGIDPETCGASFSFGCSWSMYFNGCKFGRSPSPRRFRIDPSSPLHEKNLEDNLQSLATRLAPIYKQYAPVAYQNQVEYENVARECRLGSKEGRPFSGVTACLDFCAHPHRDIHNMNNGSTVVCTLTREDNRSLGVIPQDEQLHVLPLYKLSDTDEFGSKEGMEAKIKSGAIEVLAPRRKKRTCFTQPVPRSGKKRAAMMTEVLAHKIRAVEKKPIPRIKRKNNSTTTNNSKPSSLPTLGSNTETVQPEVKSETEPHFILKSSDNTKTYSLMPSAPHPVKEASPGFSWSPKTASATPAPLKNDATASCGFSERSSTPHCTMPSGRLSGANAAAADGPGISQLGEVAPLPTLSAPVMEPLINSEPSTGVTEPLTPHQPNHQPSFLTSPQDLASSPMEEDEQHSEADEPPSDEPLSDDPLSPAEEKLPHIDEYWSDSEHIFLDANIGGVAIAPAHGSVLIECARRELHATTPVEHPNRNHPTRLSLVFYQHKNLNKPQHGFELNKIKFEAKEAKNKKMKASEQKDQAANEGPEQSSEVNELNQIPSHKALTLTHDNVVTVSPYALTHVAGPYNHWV

Tests used:
[1] = biological target: T1, FOXA2 (human (endogenous in H1 hESC-derived cells)) (UniProt Q9Y261); experiment: co-IP; lysate (4 mg) of TKO-TET1FL cells at the DE stage, sonicated, with or without 20 U nuclease at 4 °C for 30 min; precipitated with mouse anti-FLAG or goat anti-FOXA2 antibody overnight at 4 °C and protein A/G magnetic beads; washes with 0.3 M KCl and 0.1 M KCl buffers; immunoblot of TET1 or FOXA2; TKO cells as control
T1 sequence: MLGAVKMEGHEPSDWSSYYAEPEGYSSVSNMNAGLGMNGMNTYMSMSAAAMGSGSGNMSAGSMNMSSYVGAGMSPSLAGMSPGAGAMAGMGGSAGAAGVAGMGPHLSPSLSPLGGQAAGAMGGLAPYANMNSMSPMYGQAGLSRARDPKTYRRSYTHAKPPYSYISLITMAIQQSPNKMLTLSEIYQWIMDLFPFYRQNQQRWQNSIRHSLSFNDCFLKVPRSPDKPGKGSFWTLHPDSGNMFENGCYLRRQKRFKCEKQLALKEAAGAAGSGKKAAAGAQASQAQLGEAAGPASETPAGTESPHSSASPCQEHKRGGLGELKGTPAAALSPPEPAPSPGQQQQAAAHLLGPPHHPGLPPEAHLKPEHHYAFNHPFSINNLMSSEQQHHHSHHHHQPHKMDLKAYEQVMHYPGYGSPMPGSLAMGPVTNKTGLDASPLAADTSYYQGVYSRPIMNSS

[2] = biological target: C-terminal FLAG-tagged human full-length TET1 (human) (UniProt Q8NFU7); experiment: as above

## C-terminal FLAG-tagged human full-length TET1 (from UniProt Q8NFU7-1 1-2136) (enzyme)
[1]
  binding: binds

B1: FOXA2 (protein, UniProt Q9Y261 1-457)
chain: T1 sequence
[2]
  binding: binds
